Test results published in patent US20220025025A1 (IBEX BIOSCIENCES, published 2022).
Results are given in words; binding and its absence hold for the method and conditions named. Some entries that bind do so weakly or less than the wild type.

Amino acid sequences for entries named in this document (tags omitted). Residues count along the entry.
UniProt P21333, residues 2-2647: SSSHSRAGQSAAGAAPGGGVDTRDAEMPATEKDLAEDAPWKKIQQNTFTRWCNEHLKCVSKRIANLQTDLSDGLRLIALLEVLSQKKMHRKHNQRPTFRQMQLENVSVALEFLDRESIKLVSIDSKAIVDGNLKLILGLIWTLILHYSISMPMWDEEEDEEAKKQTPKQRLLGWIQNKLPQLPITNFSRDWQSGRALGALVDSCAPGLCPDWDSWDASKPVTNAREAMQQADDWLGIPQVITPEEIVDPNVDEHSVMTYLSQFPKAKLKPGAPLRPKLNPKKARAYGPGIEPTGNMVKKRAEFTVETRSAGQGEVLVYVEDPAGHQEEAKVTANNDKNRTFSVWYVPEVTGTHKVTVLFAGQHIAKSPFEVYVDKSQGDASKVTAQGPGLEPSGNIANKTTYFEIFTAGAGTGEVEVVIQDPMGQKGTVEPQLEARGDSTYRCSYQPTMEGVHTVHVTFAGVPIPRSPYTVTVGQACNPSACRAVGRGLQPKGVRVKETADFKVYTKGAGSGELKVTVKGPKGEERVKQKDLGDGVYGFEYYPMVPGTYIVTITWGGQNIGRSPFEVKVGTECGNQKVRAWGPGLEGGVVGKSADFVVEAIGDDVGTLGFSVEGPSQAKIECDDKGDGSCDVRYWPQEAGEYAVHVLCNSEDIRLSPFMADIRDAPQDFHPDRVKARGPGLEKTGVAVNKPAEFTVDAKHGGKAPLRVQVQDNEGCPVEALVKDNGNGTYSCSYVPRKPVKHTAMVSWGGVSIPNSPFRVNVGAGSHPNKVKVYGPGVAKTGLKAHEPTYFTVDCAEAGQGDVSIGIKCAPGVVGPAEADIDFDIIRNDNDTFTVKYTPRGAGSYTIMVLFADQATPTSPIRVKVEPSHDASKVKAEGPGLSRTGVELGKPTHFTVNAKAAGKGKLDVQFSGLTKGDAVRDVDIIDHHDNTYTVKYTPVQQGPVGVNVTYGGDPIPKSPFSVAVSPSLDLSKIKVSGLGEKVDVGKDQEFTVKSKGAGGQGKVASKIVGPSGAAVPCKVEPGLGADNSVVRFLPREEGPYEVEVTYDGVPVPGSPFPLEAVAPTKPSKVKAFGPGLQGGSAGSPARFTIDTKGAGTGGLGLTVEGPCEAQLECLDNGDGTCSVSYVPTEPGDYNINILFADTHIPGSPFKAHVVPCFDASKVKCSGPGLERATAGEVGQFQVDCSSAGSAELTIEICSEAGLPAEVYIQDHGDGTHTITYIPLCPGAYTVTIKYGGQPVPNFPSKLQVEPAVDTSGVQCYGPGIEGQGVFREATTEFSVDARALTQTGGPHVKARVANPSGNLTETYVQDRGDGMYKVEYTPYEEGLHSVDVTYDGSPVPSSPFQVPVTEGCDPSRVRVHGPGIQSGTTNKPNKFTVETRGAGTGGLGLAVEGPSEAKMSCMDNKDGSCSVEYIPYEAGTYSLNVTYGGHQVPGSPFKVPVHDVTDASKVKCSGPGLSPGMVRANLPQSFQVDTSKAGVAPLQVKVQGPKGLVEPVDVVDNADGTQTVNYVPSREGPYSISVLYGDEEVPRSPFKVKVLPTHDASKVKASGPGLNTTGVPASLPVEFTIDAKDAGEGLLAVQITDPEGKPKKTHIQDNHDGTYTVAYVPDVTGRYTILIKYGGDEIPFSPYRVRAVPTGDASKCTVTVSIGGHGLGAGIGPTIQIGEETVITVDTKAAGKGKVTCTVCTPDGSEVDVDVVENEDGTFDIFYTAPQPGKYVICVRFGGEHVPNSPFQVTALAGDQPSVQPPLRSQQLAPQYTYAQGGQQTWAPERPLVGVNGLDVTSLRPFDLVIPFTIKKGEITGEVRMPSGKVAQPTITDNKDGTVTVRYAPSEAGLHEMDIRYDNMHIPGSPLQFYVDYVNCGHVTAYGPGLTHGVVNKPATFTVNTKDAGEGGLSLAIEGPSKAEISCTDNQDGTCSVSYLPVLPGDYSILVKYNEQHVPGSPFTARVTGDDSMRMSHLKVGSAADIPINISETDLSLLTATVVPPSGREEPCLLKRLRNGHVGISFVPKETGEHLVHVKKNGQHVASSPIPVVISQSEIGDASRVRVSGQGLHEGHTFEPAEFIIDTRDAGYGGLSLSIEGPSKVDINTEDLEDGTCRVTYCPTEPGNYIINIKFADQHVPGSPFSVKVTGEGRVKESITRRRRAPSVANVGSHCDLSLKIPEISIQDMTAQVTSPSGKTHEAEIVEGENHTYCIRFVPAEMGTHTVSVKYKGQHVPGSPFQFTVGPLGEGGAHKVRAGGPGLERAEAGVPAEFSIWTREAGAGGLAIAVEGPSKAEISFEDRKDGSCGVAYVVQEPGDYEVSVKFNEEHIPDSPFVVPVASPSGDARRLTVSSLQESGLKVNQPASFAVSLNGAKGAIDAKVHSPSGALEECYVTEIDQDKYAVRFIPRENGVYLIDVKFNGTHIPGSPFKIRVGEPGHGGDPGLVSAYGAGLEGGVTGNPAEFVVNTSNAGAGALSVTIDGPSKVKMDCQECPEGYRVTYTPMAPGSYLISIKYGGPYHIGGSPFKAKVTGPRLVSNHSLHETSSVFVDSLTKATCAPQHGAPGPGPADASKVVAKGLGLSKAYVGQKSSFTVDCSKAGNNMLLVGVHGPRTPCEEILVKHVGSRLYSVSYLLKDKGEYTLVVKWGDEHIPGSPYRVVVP

Experiments:
[1] = target: T1, filamin-A (human, UniProt P21333 2-2647); test: immunofluorescence on fixed, permeabilized MDA-MB-231 cells
T1 construct: whole, on cells; Endogenous filamin-A of human cell lines; No purified filamin-A was used; also called FLNA; FLNa

[2] = target: T1, filamin-A; test: immunofluorescence on MDA-MB-231 cells
[3] = target: T1, filamin-A; test: immunofluorescence, methanol fixation and 0.2% Triton, MDA-MB-231 cells
[4] = target: T1, filamin-A; test: immunofluorescence, 2% paraformaldehyde fixation and 0.2% Triton, MDA-MB-231 cells

Measured: binding

B1: Anti-Filamin-A, human chimeric mAb (antibody, human IgG1, kappa, V domains shown)
VH: EVKLVESGGGLVQPGGSLKLSCAASGFTFSSYTMSWVRQTPEKRLEWVAYISNGGGSTYYPDTVKGRFTISRDNAKNTLYLQMSSLKSEDTAMYYCASDGLLRPFAYWGQGTLVTVSA
VL: DIVMTQSHKFMSTSVGDRVSITCKASQDVSIDVAWYQQKPGQSPKLLIYSASHRYTGVPDRFTGSGSGTDFTFTISGVQAEDLAVYFCQQHYSTPLTFGAGTKLELKR
binds: [1] | [2] | [3] | [4]
